According to PubChem BioAssay AID330 (DTP/NCI, 2004):
The list shows only some results of the screen, not a fair sample: it gathers tests that were run many times, whatever their T/C, doses with no T/C, and many T/C values between a quarter and a half above the control. Other doses and runs of a compound stand elsewhere. T/C gives the treated animals as a percentage of the vehicle group. Some entries give survivors of the animals treated and no T/C: the source files T/C as zero there, which appears to mark a toxic dose or a test without result, not a measured value. Some doses without a T/C left all or most animals alive at the check, yet need not have been tolerated: the source hardly ever lists a survival T/C far under the control, and the zero likely stands for such cases as well. Counts of survivors are from the toxicity check (mostly the fifth day) where no day follows; animals may have died later. Schedules are NCI's codes, read here as Q, the interval in days (D) or hours (H), X, the number of doses. Some schedules carry Z or #; the key to these is not given. Where survival is the endpoint, the PubChem record calls one and a half times the control and up active, and a quarter to a half above the control has no call in these data; cut-offs in other NCI protocols can differ.

Test system: P388 leukemia ip, CD2F1 mice, survival T/C
Assay: NCI In Vivo Anticancer Drug Screen. Data for tumor model P388 Leukemia (intraperitoneal) in CD2F1 (CDF1) mice
Conditions: T/C endpoint: median survival time, higher T/C = longer survival
[1] = dose: 200.0 mg/kg/injection, schedule: Q01DX009 (ip), vehicle: saline with Tween-80
[2] = dose: 100.0 mg/kg/injection, schedule: Q01DX005 (ip), vehicle: saline with Tween-80
[3] = dose: 200.0 mg/kg/injection, schedule: Q01DX005 (ip), vehicle: saline with Tween-80
[4] = dose: 50.0 mg/kg/injection, schedule: Q01DX005 (ip), vehicle: Klucel (hydroxypropylcellulose) (HPC)
[5] = dose: 100.0 mg/kg/injection, schedule: Q01DX005 (ip), vehicle: Klucel (hydroxypropylcellulose) (HPC)
[6] = dose: 200.0 mg/kg/injection, schedule: Q01DX005 (ip), vehicle: Klucel (hydroxypropylcellulose) (HPC)

## COC(=O)c1cc(-c2cccnc2)[nH]c(=O)c1C#N
dose: 240.0 mg/kg/injection, schedule: Q01DX005 (ip), vehicle: saline
  survivor count: 2 of 6

## CN(C)CCC(=O)/C=C/c1ccc(Cl)c(Cl)c1
dose: 100.0 mg/kg/injection, schedule: Q01DX009 (ip), vehicle: saline with Tween-80
  survivor count: 4 of 6
[1]
  survivor count: 0 of 6

## CC1=C(C(=O)Nc2cccc3ccccc23)C(c2cccc([N+](=O)[O-])c2)C(C(=O)Nc2cccc3ccccc23)=C(C)N1
dose: 60.0 mg/kg/injection, schedule: Q01DX005 (ip), vehicle: Klucel (hydroxypropylcellulose) (HPC)
  survivor count: 6 of 6
dose: 120.0 mg/kg/injection, schedule: Q01DX005 (ip), vehicle: Klucel (hydroxypropylcellulose) (HPC)
  survivor count: 6 of 6
dose: 240.0 mg/kg/injection, schedule: Q01DX005 (ip), vehicle: Klucel (hydroxypropylcellulose) (HPC)
  survivor count: 6 of 6

## CC[N+](CC)=c1cc2oc3cc(N(C)C)ccc3nc-2cc1C
[2]
  survivor count: 0 of 5
[3]
  survivor count: 0 of 5

## C=C1C(=O)O[C@H]2C3OC3(C)CC/C=C(/C(=O)OC)[C@@H](OC(C)=O)[C@H](OC(=O)C3(C)OC3C)[C@H]12 (stereo partly specified)
dose: 15.0 mg/kg/injection, schedule: Q01DX009 (ip), vehicle: Klucel (hydroxypropylcellulose) (HPC)
  survivor count: 1 of 6
dose: 30.0 mg/kg/injection, schedule: Q01DX009 (ip), vehicle: Klucel (hydroxypropylcellulose) (HPC)
  survivor count: 0 of 6
dose: 60.0 mg/kg/injection, schedule: Q01DX009 (ip), vehicle: Klucel (hydroxypropylcellulose) (HPC)
  survivor count: 0 of 6
dose: 120.0 mg/kg/injection, schedule: Q01DX009 (ip), vehicle: Klucel (hydroxypropylcellulose) (HPC)
  survivor count: 0 of 6

## COc1c2c(c(Cc3c4c(c(OC)c5c3OCO5)OC(C)C4)c3c1OCO3)CC(C)O2 (stereo unspecified)
[2]
  survivor count: 6 of 6
[3]
  survivor count: 6 of 6

## CCN1CC2(COC)C(O)CC(OC)C34C5CC6(O)C(OC)C=C(C5C6OC(=O)c5ccc(OC)c(OC)c5)C(C(OC)C23)C14 (stereo unspecified)
dose: 12.5 mg/kg/injection, schedule: Q01DX009 (ip), vehicle: Klucel (hydroxypropylcellulose) (HPC)
  survivor count: 1 of 6
dose: 25.0 mg/kg/injection, schedule: Q01DX009 (ip), vehicle: Klucel (hydroxypropylcellulose) (HPC)
  survivor count: 0 of 6
dose: 50.0 mg/kg/injection, schedule: Q01DX009 (ip), vehicle: Klucel (hydroxypropylcellulose) (HPC)
  survivor count: 0 of 6

## CCC1OC(=O)CC(O)C(C)C(OC2OC(C)C(O)C(N(C)C)C2O)C(CC=O)CC(C)C(=O)/C=C/C2(C)OC2C1C (stereo unspecified)
dose: 37.5 mg/kg/injection, schedule: Q01DX009 (ip), vehicle: Klucel (hydroxypropylcellulose) (HPC)
  T/C: 125 % of control

## CCc1nc(N)nc(N)c1-c1ccc([N+](C)(C)C)cc1
[4]
  survivor count: 3 of 6
[5]
  survivor count: 0 of 6
[6]
  survivor count: 0 of 6

## CC1C(=O)OC2C1CCC1(C)C=CC(=O)C(C)C21 (stereo unspecified)
dose: 50.0 mg/kg/injection, schedule: Q04DX002 (ip), vehicle: saline with Tween-80
  survivor count: 1 of 6

## CN(C)C=Nc1cc(N)n(C#N)c(=S)n1
dose: 15.0 mg/kg/injection, schedule: Q01DX009 (ip), vehicle: saline with Tween-80
  survivor count: 4 of 6
dose: 30.0 mg/kg/injection, schedule: Q01DX009 (ip), vehicle: saline with Tween-80
  survivor count: 0 of 6
dose: 60.0 mg/kg/injection, schedule: Q01DX009 (ip), vehicle: saline with Tween-80
  survivor count: 0 of 6

## CCCCCCCCCCCC(=O)NC(=S)Nc1ccccc1C(=O)OC
dose: 100.0 mg/kg/injection, schedule: Q01DX009 (ip), vehicle: saline
  survivor count: 3 of 6
dose: 200.0 mg/kg/injection, schedule: Q01DX009 (ip), vehicle: saline
  survivor count: 0 of 6

## CC(Cc1ccc2c(c1)OCO2)NN (stereo unspecified)
dose: 50.0 mg/kg/injection, schedule: Q01DX005 (ip), vehicle: saline with Tween-80
  survivor count: 0 of 5
[2]
  survivor count: 0 of 5
[3]
  survivor count: 0 of 5

## COc1ccc(/C=N\NC(=O)C(=O)N/N=C\c2ccc(OC)c(OC)c2)cc1OC
dose: 100.0 mg/kg/injection, schedule: Q01DX009 (ip), vehicle: Klucel (hydroxypropylcellulose) (HPC)
  survivor count: 6 of 6
dose: 200.0 mg/kg/injection, schedule: Q01DX009 (ip), vehicle: Klucel (hydroxypropylcellulose) (HPC)
  survivor count: 6 of 6

## OC1(c2ccccc2)CCCCCC1
[1]
  survivor count: 2 of 6
dose: 400.0 mg/kg/injection, schedule: Q01DX009 (ip), vehicle: saline with Tween-80
  survivor count: 0 of 6

## O=[N+]([O-])c1cc2[nH]cnc2c([N+](=O)[O-])c1NCc1ccccc1
dose: 400.0 mg/kg/injection, schedule: Q04DX002 (ip), vehicle: saline with Tween-80
  survivor count: 3 of 6

## OC(COc1c2ccccc2nc2ccccc12)CN1CCN(c2ccccc2)CC1 (stereo unspecified)
[3]
  survivor count: 6 of 6

## CCCCCCC(Cn1ccnc1)c1ccccc1Cl (stereo unspecified)
dose: 100.0 mg/kg/injection, schedule: Q04DX003 (ip), vehicle: saline with Tween-80
  survivor count: 5 of 6
dose: 200.0 mg/kg/injection, schedule: Q04DX003 (ip), vehicle: saline with Tween-80
  survivor count: 0 of 6
dose: 400.0 mg/kg/injection, schedule: Q04DX003 (ip), vehicle: saline with Tween-80
  survivor count: 0 of 6

## COc1ccc(CC[n+]2cccc(C(=O)c3ccccc3)c2)cc1OC
dose: 100.0 mg/kg/injection, schedule: Q04DX002 (ip), vehicle: saline
  survivor count: 6 of 6
dose: 200.0 mg/kg/injection, schedule: Q04DX002 (ip), vehicle: saline
  survivor count: 0 of 6
dose: 400.0 mg/kg/injection, schedule: Q04DX002 (ip), vehicle: saline
  survivor count: 0 of 6

## Cc1ccc(S(=O)(=O)N/N=C(\Cc2ccccc2)c2ccc(Br)cc2)cc1
dose: 50.0 mg/kg/injection, schedule: Q01DX009 (ip), vehicle: saline
  survivor count: 6 of 6

## C/C1=C2N=C(/C=C3N=C(/C(C)=C4\[N-]C(C(CC(N)=O)C4(C)CCC(=O)NCC(C)OP(=O)(O)OC4C(CO)OC(n5cnc6cc(C)c(C)cc65)C4O)C4(C)N=C1C(CCC(N)=O)C4(C)CC(N)=O)C(CCC(N)=O)C\3(C)C)C(CCC(N)=O)C/2(C)CC(N)=O.[CH2-]C1OC(n2cnc3c(N)ncnc32)C(O)C1O.[Co+2] (stereo unspecified)
dose: 883.0 micrograms/kg/injection, schedule: Q#A X Z (ip), vehicle: water
  survivor count: 10 of 10

## CCCCn1c(Cl)c(/C=N\Nc2ccc([N+](=O)[O-])cc2)c2ccccc21
dose: 50.0 mg/kg/injection, schedule: Q01DX001 (ip), vehicle: saline with Tween-80
  survivor count: 6 of 6
dose: 200.0 mg/kg/injection, schedule: Q01DX001 (ip), vehicle: saline with Tween-80
  survivor count: 3 of 6
dose: 400.0 mg/kg/injection, schedule: Q01DX001 (ip), vehicle: saline with Tween-80
  survivor count: 3 of 6

## CN(C)C(=S)N/N=C/c1ccccn1
dose: 25.0 mg/kg/injection, schedule: Q01DX005 (ip), vehicle: Klucel (hydroxypropylcellulose) (HPC)
  survivor count: 3 of 6
[4]
  survivor count: 0 of 6
[5]
  survivor count: 0 of 6
[6]
  survivor count: 0 of 6
